Results published in a compilation of properties of binary mixtures (doi:10.1016/0040-6031(92)80207-d).
Some of these densities may be calculated back from excess volumes.

Assay: xn = mol fraction of the nth substance listed
Conditions: 101.3 kPa, x2 = 0.6576

O=C([O-])C(F)(F)F.[Na+] + CCCCNC(N)=O
Conditions	mass density [kg/m3]
303.3 K	1213.4
306.4 K	1210.4
311.5 K	1205.6
314.3 K	1203.1
319.4 K	1198.7
322.5 K	1196.2
